In this assay the target is T1, Stat92E-GFP (Drosophila) (UniProt Q24151).
T1 sequence: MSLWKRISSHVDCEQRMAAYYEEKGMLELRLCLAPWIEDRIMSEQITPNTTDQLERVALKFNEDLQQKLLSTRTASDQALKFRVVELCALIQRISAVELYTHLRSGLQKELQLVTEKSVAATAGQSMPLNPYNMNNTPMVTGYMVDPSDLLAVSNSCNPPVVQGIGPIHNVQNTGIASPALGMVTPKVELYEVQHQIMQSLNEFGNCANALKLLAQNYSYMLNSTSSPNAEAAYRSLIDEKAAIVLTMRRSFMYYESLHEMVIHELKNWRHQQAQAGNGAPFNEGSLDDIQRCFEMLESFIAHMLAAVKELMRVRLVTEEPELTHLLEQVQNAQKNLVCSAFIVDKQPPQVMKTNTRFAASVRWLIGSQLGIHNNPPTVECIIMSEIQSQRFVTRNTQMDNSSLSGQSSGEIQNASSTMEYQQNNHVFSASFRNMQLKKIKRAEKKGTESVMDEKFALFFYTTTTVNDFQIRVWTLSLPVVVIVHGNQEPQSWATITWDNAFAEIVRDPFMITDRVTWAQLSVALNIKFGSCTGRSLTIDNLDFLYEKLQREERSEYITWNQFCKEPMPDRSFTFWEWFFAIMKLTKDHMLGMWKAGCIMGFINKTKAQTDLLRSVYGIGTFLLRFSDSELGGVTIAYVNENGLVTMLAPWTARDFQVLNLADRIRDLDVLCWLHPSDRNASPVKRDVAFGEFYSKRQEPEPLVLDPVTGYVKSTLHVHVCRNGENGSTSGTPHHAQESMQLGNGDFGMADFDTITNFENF
Briefly: co-IP; ovary extracts from 50 females; proteins chemically cross-linked with DSP prior to cell lysis; GFP magnetic agarose beads (Chromotek, GFP-trap); wash buffer 10 mM Tris-HCl pH7.5, 300 mM NaCl, 0.05% NP40, 0.5 mM EDTA; blots with anti-GFP or anti-E-cadherin.

By UniProt entry, the sequences of proteins in these tests, tags left out. Where a name states a change or a piece, a line headed by the entry shows the natural chain unless it says otherwise.
UniProt Q24298: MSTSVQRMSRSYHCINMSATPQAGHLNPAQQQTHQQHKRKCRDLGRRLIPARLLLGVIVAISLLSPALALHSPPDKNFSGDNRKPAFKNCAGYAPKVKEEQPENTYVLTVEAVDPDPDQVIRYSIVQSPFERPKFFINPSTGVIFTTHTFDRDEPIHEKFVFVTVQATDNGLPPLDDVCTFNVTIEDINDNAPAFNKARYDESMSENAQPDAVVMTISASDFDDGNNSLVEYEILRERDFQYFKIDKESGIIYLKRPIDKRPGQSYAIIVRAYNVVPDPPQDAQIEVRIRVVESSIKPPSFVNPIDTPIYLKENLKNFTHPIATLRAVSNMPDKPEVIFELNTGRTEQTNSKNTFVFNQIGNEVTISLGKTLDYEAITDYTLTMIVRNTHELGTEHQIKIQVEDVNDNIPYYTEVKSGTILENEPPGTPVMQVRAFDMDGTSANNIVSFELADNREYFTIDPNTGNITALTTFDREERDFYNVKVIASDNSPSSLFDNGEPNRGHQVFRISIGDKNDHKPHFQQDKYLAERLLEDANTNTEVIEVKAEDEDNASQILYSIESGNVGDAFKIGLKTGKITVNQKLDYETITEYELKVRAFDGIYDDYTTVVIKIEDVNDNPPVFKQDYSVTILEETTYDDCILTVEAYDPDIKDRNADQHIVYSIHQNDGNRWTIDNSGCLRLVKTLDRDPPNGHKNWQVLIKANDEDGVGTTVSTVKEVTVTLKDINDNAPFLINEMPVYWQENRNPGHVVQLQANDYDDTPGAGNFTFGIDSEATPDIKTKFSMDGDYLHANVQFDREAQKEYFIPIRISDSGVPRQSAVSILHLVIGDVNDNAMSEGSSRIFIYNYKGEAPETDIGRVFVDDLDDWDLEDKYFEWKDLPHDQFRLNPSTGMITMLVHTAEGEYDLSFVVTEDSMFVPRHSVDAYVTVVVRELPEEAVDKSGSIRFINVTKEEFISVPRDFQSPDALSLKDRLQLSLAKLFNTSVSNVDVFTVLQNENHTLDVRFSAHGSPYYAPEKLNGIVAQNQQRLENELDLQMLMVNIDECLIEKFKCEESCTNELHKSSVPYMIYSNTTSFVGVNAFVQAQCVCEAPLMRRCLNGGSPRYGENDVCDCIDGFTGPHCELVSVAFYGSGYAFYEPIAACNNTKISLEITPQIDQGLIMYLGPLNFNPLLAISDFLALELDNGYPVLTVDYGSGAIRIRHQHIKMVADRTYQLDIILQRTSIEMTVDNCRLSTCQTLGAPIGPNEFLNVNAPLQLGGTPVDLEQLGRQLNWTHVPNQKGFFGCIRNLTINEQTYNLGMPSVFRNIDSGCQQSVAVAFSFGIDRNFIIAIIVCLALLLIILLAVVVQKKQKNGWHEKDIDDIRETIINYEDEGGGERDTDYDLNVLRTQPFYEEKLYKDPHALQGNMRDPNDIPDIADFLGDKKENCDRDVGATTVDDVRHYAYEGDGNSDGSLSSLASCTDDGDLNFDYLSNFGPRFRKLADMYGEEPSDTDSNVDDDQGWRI

Results are given in words; binding and its absence hold for the method and conditions named. Binding seen in cells or lysates may run through a third protein. A result given as binding can be weak or reduced; the word gives no strength. Where a sequence is shown, tags or fusion partners need not be part of it.

Consider “E-cadherin, overexpressed (UAS-shg) (from UniProt Q24298)”, for which the binding entry is on record as “binds”.

The record behind these values is publication PMC9473917.
